Experimental findings from paper PMC7115168 are described below.

Results are given in words; binding and its absence hold for the method and conditions named. Binding seen in cells or lysates may run through a third protein. Some binding calls cover weakened binding; strength is not graded here.

The assay concerns the target T1, Peroxisome proliferator-activated receptor γ coactivator 1α (human (endogenous in MHCC-97H and HCC-LM3)) (UniProt Q9UBK2).
T1 sequence: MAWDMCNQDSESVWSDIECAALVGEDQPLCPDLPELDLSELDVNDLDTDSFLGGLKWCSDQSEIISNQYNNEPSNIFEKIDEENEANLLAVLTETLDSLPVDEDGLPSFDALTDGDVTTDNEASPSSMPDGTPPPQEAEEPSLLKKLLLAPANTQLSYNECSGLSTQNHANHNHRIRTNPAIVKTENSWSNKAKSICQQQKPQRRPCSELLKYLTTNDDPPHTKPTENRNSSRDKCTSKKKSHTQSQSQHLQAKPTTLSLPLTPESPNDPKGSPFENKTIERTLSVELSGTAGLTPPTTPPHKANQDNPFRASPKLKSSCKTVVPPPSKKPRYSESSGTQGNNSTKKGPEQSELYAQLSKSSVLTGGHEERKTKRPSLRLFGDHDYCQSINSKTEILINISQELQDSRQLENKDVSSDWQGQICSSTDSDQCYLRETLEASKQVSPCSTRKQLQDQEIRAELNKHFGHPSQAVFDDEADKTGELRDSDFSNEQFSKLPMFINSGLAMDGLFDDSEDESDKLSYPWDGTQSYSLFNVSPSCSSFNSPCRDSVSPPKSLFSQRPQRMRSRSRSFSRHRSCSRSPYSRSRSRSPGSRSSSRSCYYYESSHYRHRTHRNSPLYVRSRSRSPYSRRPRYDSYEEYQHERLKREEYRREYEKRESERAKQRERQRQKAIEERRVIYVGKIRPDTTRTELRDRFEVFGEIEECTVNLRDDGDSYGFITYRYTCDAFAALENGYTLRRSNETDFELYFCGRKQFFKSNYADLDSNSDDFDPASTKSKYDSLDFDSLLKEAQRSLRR
As to the kind of experiment: co-IP; endogenous IP from whole cell lysates of MHCC-97H and HCC-LM3 cells; primary antibodies and protein A/G Dynabeads at 4°C overnight; input, IgG negative control and IP analysed by Western blotting. For orientation: A western blot detects proteins with antibodies after separation by electrophoresis.

B1: SET8 (protein, UniProt Q9NQR1 1-393)
chain: MGEGGAAAALVAAAAAAAAAAAAVVAGQRRRRLGRRARCHGPGRAAGGKMSKPCAVEAAAAAVAATAPGPEMVERRGPGRPRTDGENVFTGQSKIYSYMSPNKCSGMRFPLQEENSVTHHEVKCQGKPLAGIYRKREEKRNAGNAVRSAMKSEEQKIKDARKGPLVPFPNQKSEAAEPPKTPPSSCDSTNAAIAKQALKKPIKGKQAPRKKAQGKTQQNRKLTDFYPVRRSSRKSKAELQSEERKRIDELIESGKEEGMKIDLIDGKGRGVIATKQFSRGDFVVEYHGDLIEITDAKKREALYAQDPSTGCYMYYFQYLSKTYCVDATRETNRLGRLINHSKCGNCQTKLHDIDGVPHLILIASRDIAAGEELLYDYGDRSKASIEAHPWLKH
Turning to B1, the binding entry is given as “binds”.
